Laboratory results from patent US10370697B2, “Propeptide-luciferase fusion proteins and methods of use thereof” (THE BROAD INSTITUTE, INC., priority 2011, dated 2019).
For part of these data: At least one read-out could not be matched to a standard name with certainty. For part of these data: At least one structure is not confirmed: it was looked up by name or label, or the drawing left a doubt.

Test system: MIN6 mouse beta cell line
Test: Luciferase secretion, preproamylin-Gaussia luciferase (PAG) reporter
Assay type: cell-based
Conditions: 1 hour at the indicated glucose concentrations; 25 uM glipizide, 50 uM IBMX, 20 uM forskolin, 40 mM KCl, 20 uM PMA
Procedure: FIG. 4 is a graph showing the pre-proamylin-luciferase reporter in MIN6 cells responds as predicted to known insulin secretagogues. Cells were treated for 1 hour at the indicated glucose concentrations with either DMSO, 25 uM glipizide, 2.5 uM glucokinase activator (GKA), 50 uM 3-isobutyl-1-methylxanthine (IBMX), 20 uM forskolin, 40 mM potassium chloride (KCl), or 20 uM phorbol myristate acetate (PMA).
For standard secretion assays, MIN6 and INS-1E cells were plated in 96-well format at a density of 4×10^4 cells per well in 100 μL of their respective growth media and incubated overnight at 37° C. in 5% CO2 to allow attachment. Cells were washed once with PBS and incubated for 1 hour at 37° C. in sterile, 0.45 μm-filtered Krebs Ringer Buffer (KRB) containing 138 mM NaCl, 5.4 mM KCl, 2.6 mM MgCl2, 2.6 mM CaCl2, 5 mM NaHCO3, 10 mM HEPES and 5 g/L bovine serum albumin (Sigma®). The cells were then washed in KRB once and stimulated for 1 hour in 100 μL of fresh KRB containing varying amounts of glucose and compounds. The insulin concentration was determined using an insulin ELISA (ALPCO®) with the supplied protocol. Luciferase activity was determined from the same samples by adding the coelenterazine substrate (Nanolight®) to the supernatant to a final concentration of 20 μM and reading on a standard plate reader (Biotek™, Winooski, Vt.). […]

SMILES	luciferase activity (luminescence)
C=C[C@@]1(C)CC(=O)[C@]2(O)[C@@]3(C)[C@@H](O)CCC(C)(C)[C@@H]3[C@H](O)[C@H](OC(C)=O)[C@@]2(C)O1 [forskolin]	increased luminescence in a dose-dependent manner

Test system: MIN6 cells expressing proinsulin-luciferase construct
Test: High-throughput luciferase secretion screen, proinsulin-luciferase reporter, 384-well
Assay type: cell-based, mouse
Conditions: difference of Z-score with and without glucose
Procedure: MIN6 and INS-1E cells were expanded to 80% confluence in their respective growth media, washed once in PBS and incubated for 1 hour at 37° C. in KRB without glucose. Cells were then dissociated, spun at 300 g×2 minutes, resuspended in fresh KRB without glucose and filtered through 40 μm mesh (Becton Dickenson®). Next, the cells were counted and diluted in KRB to 1×10^6 cells per mL, and glucose was added as required for each experiment. Cells were then seeded in 384-well format, 3×10^4 cells in 30 μL per well, using a Multidrop™ Combi device (Thermo Scientific®, Billerica, Mass.). Compounds from the Pharmakon 1600 Collection (Microsource Discovery Systems™, Gaylordsville, Conn.) were pinned into each well using a CyBio® Vario (CyBio®, Jena, Germany) to a final concentration of 30 μM, and the plates were then incubated for 1 hour at 37° C. The plates were then spun at 300 g×2 minutes and the supernatant transferred to a new 384-well plate. Coelenterazine substrate was then added to a final concentration of 20 μM and luciferase activity determined using a standard plate reader (Biotek®).
For the high-throughput screens, the Z-score of each test compound was calculated using the formula: […]
where x is the log-transformed, signal decay-adjusted luciferase signal from a compound-treated well, μ is the mean of the log-transformed luciferase signals from the DMSO-treated wells on the same plate, and a is the standard deviation of the log-transformed luciferase signals of the DMSO-treated wells across all plates (to allow for cross-plate comparison of compounds). Prior to calculating the Z-score, a row-based correction factor was applied to all luciferase readings to adjust for the rapid signal decay occurring during the course of each 384-well plate read. The signal decay was modeled as a logarithmic function (Microsoft® Excel) and then used to adjust each well's luciferase reading based on the corresponding row within the plate.
We performed a pilot chemical screen at a substimulatory glucose concentration (100 mg/dL) in MIN6 cells using a collection of 1600 known bioactive small molecules, with the sulfonylurea glipizide included as a positive control. […] Several commonly used drugs without known links to beta-cell function caused significant increases in luciferase secretion in our assay (compounds summarized in Table 1).
As there is a well-recognized need for glucose-dependent small-molecule agonists of insulin secretion, we subsequently evaluated whether our assay could be adapted to find such secretagogues. We repeated the 1600-compound screen in the presence and absence of a substimulatory glucose concentration (100 mg/dL).

SMILES	Z-score Δ
Oc1ccc(OCc2ccccc2)cc1 [Monobenzone]	26.2
COc1ccccc1OCCNCC(O)COc1cccc2[nH]c3ccccc3c12 (stereo not drawn) [Carvedilol]	8.7
CCN(CC)CCNC(C(=O)OCCC(C)C)c1ccccc1 (stereo not drawn) [Camylofine]	4.5
Clc1ccc(Cn2c(CN3CCCC3)nc3ccccc32)cc1 [Clemizole]	11.8
CCCNCC(O)COc1ccccc1C(=O)CCc1ccccc1 (stereo not drawn) [Propafenone]	9
O=C(CCCN1CCC2(CC1)C(=O)NCN2c1ccccc1)c1ccc(F)cc1 [Spiperone]	11.8
COc1c2ccoc2cc2oc(=O)ccc12 [Bergapten]	18
CCN(CC)CCOC(=O)C(Cc1cccc2ccccc12)CC1CCCO1 (stereo not drawn) [Nafronyl]	14.4
